A short description of the data set: Polymerization kinetics of adhesive resins (real-time near-IR during photocuring). Conditions: for degree of conversion at Rpmax (DC at Rpmax) / maximum rate of polymerization (Rpmax): average (SD); for increase of polymerization rate when combined with UDMA: UDMA versus BisGMA.
Where [1] appears, read: 40 wt % monomer with 60 wt % BisGMA.
[2] abbreviates: 40 wt % monomer with 60 wt % UDMA.

Values joined by “and” are separate entries in the source; they are usually repeats but may differ in a detail not shown here. Equal entries are not always repeated.

For the molecule `C=CC(=O)N(C)C` [DMAM, N.N-Dimethylacrylamide], under setting [1], the “degree of conversion at Rpmax (DC at Rpmax)” value (from here on “degree of conversion at Rpmax”) is given as 39.1 (2.9) AB % and the “maximum rate of polymerization (Rpmax)” value is recorded as 31.3 (0.6) A % · s^−1. Further, under setting [2], the “degree of conversion at Rpmax” value was 54.0 (0.9) A % and the “maximum rate of polymerization (Rpmax)” value is 24.6 (2.0) A % · s^−1. Where the note is “BisGMA (second Table 2)”, the “DC at 40 s” value was 81.3(0.8)A, the “DC at Rpmax” value is reported as 39.1(2.9)A % and the Rpmax is 31.3(0.6)A %·s−1. Further, under “UDMA (second Table 2)”, the “DC at 40 s” value is 91.0(1.5)A, the “DC at Rpmax” value is given as 54.0(0.9)A % and the Rpmax is given as 24.6(2.0)A %·s−1. Also, where the note is “copolymerization with BisGMA”, the “final degree of conversion” value is reported as 90.2%; the “final degree of conversion higher than HEM” value is on record as 13%; the polymerization rate is 31.3 %.sec^−1 and 31.2 %.sec^−1; the “polymerization rate relative to HEM” value was about 4 times. Moreover, for the setting “copolymerization with UDMA”, the “final degree of conversion” value was 95.5%; the polymerization rate is 24.6 %.sec^−1 and 23.0 %.sec^−1.

Consider `C=CC(=O)NCCO` [HEAM, N-Hydroxyethyl acrylamide], for which, under setting [1], the “degree of conversion at Rpmax” value is given as 35.3 (0.9) BC % and the “maximum rate of polymerization (Rpmax)” value is 11.4 (0.4) C % · s^−1.

Take `C=CC(=O)N(C)CCO` [HEM, N-(2-hydroxyethyl)-N-methylacrylamide]: under setting [1], the “degree of conversion at Rpmax” value is listed as 29.6 (0.6) CD % and the “maximum rate of polymerization (Rpmax)” value is listed as 8.3 (1.4) D % · s^−1. For the same molecule, under setting [2], the “degree of conversion at Rpmax” value is 36.5 (2.3) C % and the “maximum rate of polymerization (Rpmax)” value is 26.2 (0.5) A % · s^−1. In addition, for the setting “BisGMA (second Table 2)”, the “DC at 40 s” value is listed as 60.3(0.7)C, the “DC at Rpmax” value is recorded as 29.6(0.6)BC % and the Rpmax was 8.3(1.4)C %·s−1. Where the note is “UDMA (second Table 2)”, the “DC at 40 s” value was 84.2(1.9)A, the “DC at Rpmax” value is reported as 36.5(2.3)C % and the Rpmax is on record as 26.2(0.5)A %·s−1. Moreover, under “copolymerization with BisGMA”, the “final degree of conversion” value worked out at 78.1% and the polymerization rate amounted to 8.3 %.sec^−1. Further, where the note is “copolymerization with UDMA”, the “final degree of conversion” value is 93.2% and 92.6%; the polymerization rate was 26.2 %.sec^−1 and 25.0 %.sec^−1 and 26.1 %.sec^−1.

Consider `C=C(C)C(=O)OCCO` [HEMA, 2-Hydroxyethyl methacrylate], for which, under setting [1], the “degree of conversion at Rpmax” value is recorded as 29.8 (1.9) CD % and the “maximum rate of polymerization (Rpmax)” value was 10.9 (0.6) C % · s^−1. Besides, under setting [2], the “degree of conversion at Rpmax” value is on record as 44.7 (1.0) B % and the “maximum rate of polymerization (Rpmax)” value is recorded as 17.1 (0.1) B % · s^−1. Besides, for the setting “BisGMA (second Table 2)”, the “DC at 40 s” value was 67.7(2.7)B; the “DC at Rpmax” value is 29.8±1.9% and 29.8(1.9)BC %; the Rpmax was 10.9(0.6)B %·s−1. Moreover, for the setting “UDMA (second Table 2)”, the “DC at 40 s” value is 75.3(1.2)B; the “DC at Rpmax” value is 44.7±1.0% and 44.7(1.0)B %; the Rpmax is given as 17.1(0.1)B %·s−1. Where the note is “copolymerization with UDMA”, the “final degree of conversion” value is listed as 90.3%; the polymerization rate was 17.1 %.sec^−1 and 17.0 %.sec^−1.

For `C=C(C)C(=O)NCCO` [HEMAM, N-Hydroxyethyl methacrylamide], the “increase of polymerization rate when combined with UDMA” value (“increase of polymerization rate” for short) is recorded as “more than two-fold”. Also, under setting [1], the “degree of conversion at Rpmax” value is recorded as 26.1 (0.2) D % and the “maximum rate of polymerization (Rpmax)” value is recorded as 6.9 (0.9) D % · s^−1. Besides, under setting [2], the “degree of conversion at Rpmax” value is given as 22.7 (0.9) D % and the “maximum rate of polymerization (Rpmax)” value is on record as 16.9 (0.2) B % · s^−1. Moreover, where the note is “BisGMA (second Table 2)”, the “DC at 40 s” value was 47.3(6.9)D, the “DC at Rpmax” value is listed as 26.1(0.2)C % and the Rpmax is reported as 6.9(0.9)C %·s−1. Also, for the setting “UDMA (second Table 2)”, the “DC at 40 s” value is reported as 65.4(1.5)C, the “DC at Rpmax” value was 22.7(0.9)D % and the Rpmax is listed as 16.9(0.2)B %·s−1. Besides, for the setting “copolymerization with BisGMA”, the “final degree of conversion” value was 74.9% and 75.9%; the polymerization rate is 6.9 %.sec^−1 and 7.4 %.sec^−1. Where the note is “copolymerization with UDMA”, the “final degree of conversion” value is on record as 84.0%; the polymerization rate is 16.9 %.sec^−1 and 17.0 %.sec^−1 and 16.0 %.sec^−1.

In the case of `C=C(C)C(=O)N(C)CCO` [HEMMA, N-(2-hydroxyethyl)-N-methylmethacrylamide], under setting [1], the “degree of conversion at Rpmax” value is 19.0 (1.1) E % and the “maximum rate of polymerization (Rpmax)” value was 1.9 (0.3) E % · s^−1.

Take `C=C(C)C(=O)NC(CC)CO` (stereo not shown) [Monomer 2EM, N-(1-hydroxybutan-2-yl)methacrylamide]: the “increase of polymerization rate” value was “more than two-fold”. Also, under setting [1], the “degree of conversion at Rpmax” value is given as 18.5 (0.7) E % and the “maximum rate of polymerization (Rpmax)” value is recorded as 6.8 (0.1) D % · s^−1. Further, under setting [2], the “degree of conversion at Rpmax” value was 16.5 (2.7) E % and the “maximum rate of polymerization (Rpmax)” value is given as 14.7 (0.6) B % · s^−1. Moreover, for the setting “BisGMA (second Table 2)”, the “DC at 40 s” value was 41.3(0.7)D, the “DC at Rpmax” value was 18.5(0.7)D % and the Rpmax was 6.8(0.1)C %·s−1. In addition, under “UDMA (second Table 2)”, the “DC at 40 s” value is recorded as 58.4(1.6)CD, the “DC at Rpmax” value is given as 16.5(2.7)E % and the Rpmax is on record as 14.7(0.6)B %·s−1. Further, where the note is “copolymerization with BisGMA”, the “final degree of conversion” value was 72.6%; the polymerization rate is 8.3 %.sec^−1 and 6.7 %.sec^−1. Where the note is “copolymerization with UDMA”, the “final degree of conversion” value is reported as 84.1%; the polymerization rate is 14.7 %.sec^−1 and 14.0 %.sec^−1.

On to `C=C(C)C(=O)NC(C)(C)CO` [Monomer 2dMM, N-(1-hydroxy-2-methylpropan-2-yl)methacrylamide], for which the “increase of polymerization rate” value was 25%. In addition, under setting [1], the “degree of conversion at Rpmax” value is 14.5 (3.0) E % and the “maximum rate of polymerization (Rpmax)” value is 12.4 (0.6) BC % · s^−1. Besides, under setting [2], the “degree of conversion at Rpmax” value was 18.6 (1.6) DE % and the “maximum rate of polymerization (Rpmax)” value is 15.9 (0.2) B % · s^−1. Under “BisGMA (second Table 2)”, the “DC at 40 s” value is reported as 45.3(0.6)D, the “DC at Rpmax” value was 14.5(3.0)D % and the Rpmax is listed as 12.4(0.6)B %·s−1. For the setting “UDMA (second Table 2)”, the “DC at 40 s” value is listed as 57.0(1.0)D, the “DC at Rpmax” value is recorded as 18.6(1.6)DE % and the Rpmax is 15.9(0.2)B %·s−1. Moreover, under “copolymerization with BisGMA”, the “final degree of conversion” value came to 73.7%; the polymerization rate is 12.4 %.sec^−1 and 12.3 %.sec^−1. In addition, where the note is “copolymerization with UDMA”, the “final degree of conversion” value stood at 80.1%; the polymerization rate was 15.9 %.sec^−1 and 15.0 %.sec^−1.

(Values after patent US11712404B2 (priority 2018, dated 2023).)
